{"sequences": {"note": "Sequences of proteins named here, by UniProt entry; tags and fusion partners are left off. A change or cut given only in a name is not applied to a line headed by its entry.", "UniProt O94782": "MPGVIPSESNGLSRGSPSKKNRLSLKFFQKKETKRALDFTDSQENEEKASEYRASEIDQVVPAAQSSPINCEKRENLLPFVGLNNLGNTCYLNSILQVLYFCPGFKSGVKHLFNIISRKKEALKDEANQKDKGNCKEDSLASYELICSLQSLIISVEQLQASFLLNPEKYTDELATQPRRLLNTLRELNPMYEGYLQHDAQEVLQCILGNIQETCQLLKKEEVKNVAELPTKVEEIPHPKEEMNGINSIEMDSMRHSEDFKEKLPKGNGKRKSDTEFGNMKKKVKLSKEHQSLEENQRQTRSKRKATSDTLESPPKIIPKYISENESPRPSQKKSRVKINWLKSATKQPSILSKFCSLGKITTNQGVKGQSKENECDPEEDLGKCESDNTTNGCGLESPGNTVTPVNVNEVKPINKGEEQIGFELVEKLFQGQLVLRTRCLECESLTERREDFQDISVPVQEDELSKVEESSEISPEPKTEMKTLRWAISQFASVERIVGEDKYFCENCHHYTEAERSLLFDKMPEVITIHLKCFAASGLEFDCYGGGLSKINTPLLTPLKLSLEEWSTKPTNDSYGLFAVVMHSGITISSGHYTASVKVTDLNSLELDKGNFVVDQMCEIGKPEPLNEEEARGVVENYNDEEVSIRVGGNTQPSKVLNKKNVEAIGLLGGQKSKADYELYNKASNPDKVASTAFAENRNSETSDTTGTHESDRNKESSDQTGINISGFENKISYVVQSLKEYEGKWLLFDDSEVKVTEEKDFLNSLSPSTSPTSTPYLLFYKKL"}, "source": "PubChem BioAssay AID743255", "about": "(National Center for Advancing Translational Sciences (NCATS), 2014)", "note": "In all, about 390,000 compounds went through this assay and about 910 (0.23%) were called active. Inconclusive results, whose numbers are uncertain, are shown with a selection of clear calls. Calls follow the shape of the dose curve; as a rule, active = well fitted inhibition curve with a large enough effect; inconclusive = small, poorly fitted or top-dose-only effect; inactive = no such curve, though single readings can be large or run the other way. A potency beside an inconclusive call is a rough fit, not a confirmed value. Potency is read from the fitted curve at half-maximal effect.", "data": [{"target": "Ubiquitin carboxyl-terminal hydrolase 1 (Homo sapiens) (UniProt O94782)", "assay": "Inhibitors of USP1/UAF1: Primary Screen; also: nearly all actives have a fitted effect of over 60% in size", "details": "recombinant USP1/UAF1, Ub-Rhodamine cleavage fluorescence; series mostly up to 57.1 µM", "outline": "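USP1/UAF1 complex at 1 nM was preincubated with compound for 15 min at room temperature, then Ub-Rho substrate (150nM final) was added. Fluorescence (480/540 nm) was read kinetically, 6 reads every 60 seconds.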", "values": [{"molecule": "O=C(/C=C/c1ccc([N+](=O)[O-])cc1)OCC(=O)N1CCCCCC1", "Potency": "inconclusive: 7.08 µM [inhibitor, partial curve, poor fit]"}, {"molecule": "CCCCNC(=O)c1onc(CCl)c1C(=O)OC", "Potency": "inconclusive: 2.82 µM [inhibitor, full curve, poor fit]"}, {"molecule": "CCOC(=O)c1[nH]c(C)c(CCC(=O)Nc2ccc(C(C)=O)cc2)c1C", "Potency": "inconclusive: 0.794 µM [inhibitor, full curve, poor fit]"}, {"molecule": "O=C(NCCCn1ccnc1)c1ccc(NS(=O)(=O)c2ccc(Cl)c(Cl)c2)cc1", "Potency": "inactive"}, {"molecule": "CCN=C1S/C(=C\\c2cn(C(C)=O)nc2-c2ccccc2)C(=O)N1CC", "Potency": "inactive"}, {"molecule": "COc1ccc(NC(=O)CCCn2c(=O)c3cccn3c3ccccc32)c(OC)c1", "Potency": "inactive"}, {"molecule": "OCCNC(=S)Nc1cc(Cl)cc(Cl)c1", "Potency": "inconclusive: 7.94 µM [inhibitor, partial curve]"}, {"molecule": "NC(=O)CSc1cn(CCNC(=O)c2cccs2)c2ccccc12", "Potency": "inconclusive: 8.91 µM [inhibitor, partial curve, poor fit]"}, {"molecule": "Cc1ccc(S(=O)(=O)c2cnc(SCC(=O)Nc3cccc(Cl)c3)nc2N)cc1C", "Potency": "inconclusive: 6.31 µM [inhibitor, full curve, poor fit]"}, {"molecule": "CCC(Oc1ccccc1OC)C(=O)N1CC(=O)Nc2ccccc21", "note": "(centres undefined)", "Potency": "inconclusive: 31.6 µM [inhibitor, single point]"}, {"molecule": "CCN(CC)C(=O)c1sc(NC(=O)c2nc3ncccn3n2)c(C(=O)OC)c1C", "Potency": "inactive"}, {"molecule": "CC1CCCN(C(=O)/C(=C/c2ccco2)NC(=O)c2ccccc2)C1", "note": "(centres undefined)", "Potency": "inactive"}, {"molecule": "CCN1/C(=C/c2cc[n+](C)cc2)C=Cc2cc(C)ccc21", "Potency": "inconclusive: 39.8 µM [inhibitor, partial curve]"}, {"molecule": "O=C(Nc1ccc(Cl)c(Cl)c1)C1C2C=CC3(O2)C1C(=O)N(CCN1CCCCC1)C3C(=O)NC1CCCCC1", "note": "(centres undefined)", "Potency": "inconclusive: 5.62 µM [inhibitor, partial curve, poor fit]"}, {"molecule": "CCOc1ccc(NC(=O)CN2CCN(S(=O)(=O)c3ccc(Cl)cc3)CC2)cc1", "Potency": "inconclusive: 8.91 µM [inhibitor, partial curve]"}, {"molecule": "Cc1ccc(S(=O)(=O)N2CCN(C(=O)COC(=O)c3nc(Cl)ccc3Cl)CC2)c(C)c1", "Potency": "inactive"}, {"molecule": "CCOC(=O)CSc1c(-c2cccs2)[nH]c2ccccc12", "Potency": "inconclusive: 44.7 µM [inhibitor, partial curve, poor fit]"}, {"molecule": "Cc1csc(SCC(=O)Nc2sc3c(c2C#N)CCC3)n1", "Potency": "inactive"}, {"molecule": "COC(=O)c1ccc(COC(=O)C2CCN(S(=O)(=O)c3c(C)cc(C)cc3C)CC2)o1", "Potency": "inactive"}, {"molecule": "O=c1cc(CN2CCN(S(=O)(=O)c3cccc(Cl)c3)CC2)c2ccc(O)cc2o1", "Potency": "inactive"}, {"molecule": "NC(=O)C1CCN(c2ccc3c(c2)S(=O)(=O)c2ccccc2C3=O)CC1", "Potency": "inconclusive: 31.6 µM [inhibitor, single point]"}, {"molecule": "O=C1C=C(N2CCCCC2)c2ccccc2C1=O", "Potency": "active: 7.94 µM"}, {"molecule": "CC(=Nc1ccc(C)cc1)c1sc2ccccc2c1O", "Potency": "inconclusive: 70.8 µM [inhibitor, partial curve, poor fit]"}, {"molecule": "CCCn1c(N)c(N(CCOC)C(=O)c2ccc(C#N)cc2)c(=O)[nH]c1=O", "Potency": "inconclusive: 7.94 µM [inhibitor, partial curve]"}, {"molecule": "Cc1ccc2c(c1)c(=O)c1ccccc1n2CCCC(=O)Nc1ccc(C)c(F)c1", "Potency": "inactive"}, {"molecule": "COc1ccc(-c2ccc(-c3noc(-c4ccccc4)n3)c(OC)n2)cc1", "Potency": "inconclusive: 35.5 µM [inhibitor, single point]"}, {"molecule": "Cc1ccc(Cn2c(SCCN3CCCCC3)nc3c2c(=O)[nH]c(=O)n3C)cc1", "Potency": "inactive"}, {"molecule": "CCN(CC)CCN(C(=O)CCS(=O)(=O)c1ccccc1)c1nc2cc(OC)c(OC)cc2s1", "Potency": "inactive"}, {"molecule": "Nc1nnnn1/N=C/c1cc(Cl)cc(Cl)c1O", "Potency": "inconclusive: 28.2 µM [inhibitor, partial curve]"}, {"molecule": "Cc1c(CC(=O)N2CCN(C(=O)C3COc4ccccc4O3)CC2)c(=O)oc2cc(O)c(Cl)cc12", "note": "(centres undefined)", "Potency": "inactive"}, {"molecule": "Cc1cccc(N2CCN(C(=O)c3nn(C)c4c3CS(=O)(=O)c3ccccc3-4)CC2)c1C", "Potency": "inconclusive: 0.0316 µM [inhibitor, full curve, poor fit]"}, {"molecule": "O=C(Nc1ccc(Br)cc1)c1csc(-c2ccncc2)n1", "Potency": "inconclusive: 7.94 µM [inhibitor, single point]"}, {"molecule": "O=C(Cc1csc(Nc2nc(=S)[nH]c3ccccc23)n1)NCCCN1CCN(c2cccc(Cl)c2)CC1", "Potency": "inconclusive: 44.7 µM [inhibitor, partial curve, poor fit]"}, {"molecule": "COC(=O)c1ccc2c(=O)n3nc(Nc4ccc(F)cc4F)sc3nc2c1", "Potency": "inconclusive: 0.631 µM [inhibitor, full curve, poor fit]"}, {"molecule": "CCOC(=O)c1c(C)[nH]c(CCC(=O)Nc2ccccc2C(F)(F)F)c1C", "Potency": "inconclusive: 0.708 µM [inhibitor, full curve, poor fit]"}, {"molecule": "COC(=O)C1=C(C)N(c2ccccc2)/C(=C/c2cccs2)C1=O", "Potency": "inconclusive: 50.1 µM [inhibitor, partial curve, poor fit]"}, {"molecule": "c1coc(-c2nc(-c3ccco3)c(-c3ccco3)nc2-c2ccco2)c1", "Potency": "inconclusive: 39.8 µM [inhibitor, single point]"}, {"molecule": "CCN(C(=O)CCc1nc(-c2ccc(C)cc2)no1)c1cccc(C(F)(F)F)c1", "Potency": "inconclusive: 0.0891 µM [inhibitor, full curve, poor fit]"}, {"molecule": "COc1cc2oc(=O)cc(-c3ccc(-c4ccc(N(C)C)cc4)cc3)c2c(OC)c1OC", "Potency": "inconclusive: 50.1 µM [inhibitor, partial curve, poor fit]"}, {"molecule": "CC(=O)Nc1nc2cc(N)ccc2s1", "Potency": "inconclusive: 8.91 µM [inhibitor, partial curve, poor fit]"}, {"molecule": "COc1ccc(CNC(=O)C2Cc3cc(S(=O)(=O)N4CCCC4)ccc3N2C(C)=O)c(OC)c1", "note": "(centres undefined)", "Potency": "inactive"}, {"molecule": "CC(C)c1cc(NCc2ccccn2)n2c(nc3ccccc32)c1C#N", "Potency": "inconclusive: 6.31 µM [inhibitor, single point]"}, {"molecule": "C#CCOCCOCCOCCNc1nc(N2CCOCC2)nc(N2CCN(C(=O)CCCCCCCCCCNC(=O)[C@H](CO)n3cc(CCCCCN)nn3)CC2)n1", "Potency": "inactive"}, {"molecule": "O=C(NCC(=O)N1CCN(c2ncccn2)CC1)c1ccccc1F", "Potency": "inactive"}, {"molecule": "Cc1ccc2ccc(C(Nc3cccc(C(F)(F)F)c3)c3cccnc3)c(O)c2n1", "note": "(centres undefined)", "Potency": "inconclusive: 50.1 µM [inhibitor, partial curve, poor fit]"}, {"molecule": "CCn1c(=O)cc(C(F)(F)F)[nH]c1=S", "Potency": "inactive"}, {"molecule": "Cc1cccc(NC(=O)CSc2nc3ccc(NC(=O)COc4ccccc4C)cc3s2)c1", "Potency": "inconclusive: 0.251 µM [inhibitor, full curve, poor fit]"}, {"molecule": "CO/N=C/CC(=O)c1ccc([N+](=O)[O-])c(CS(=O)(=O)c2ccc(Cl)cc2)c1", "Potency": "inconclusive: 44.7 µM [inhibitor, partial curve]"}, {"molecule": "O=C(NNS(=O)(=O)c1ccc(F)cc1)C1CCN(S(=O)(=O)c2ccccc2)CC1", "Potency": "inconclusive: 4.47 µM [inhibitor, single point]"}, {"molecule": "CCC(C)C(NC(=O)c1ccccc1NC(=O)c1ccco1)C(=O)NNC(=O)c1ccncc1", "note": "(centres undefined)", "Potency": "inconclusive: 4.47 µM [inhibitor, single point]"}, {"molecule": "COc1ccc(C)cc1NC(=O)N1CCN(S(=O)(=O)c2ccc3c(ccn3C)c2)CC1", "Potency": "inconclusive: 0.141 µM [inhibitor, full curve, poor fit]"}, {"molecule": "CCOC(=O)C1=C(c2ccc(O)cc2)NC(=O)NC1C", "note": "(centres undefined)", "Potency": "inconclusive: 20 µM [inhibitor, partial curve, poor fit]"}, {"molecule": "CCCNC(=O)C1(CC2CC(c3ccccc3)=NO2)CCN(C(=O)CCCCCBr)CC1", "note": "(centres undefined)", "Potency": "inconclusive: 50.1 µM [inhibitor, partial curve, poor fit]"}, {"molecule": "COc1ccccc1NNC(=O)C(O)(c1ccccc1)c1ccccc1", "Potency": "inconclusive: 10 µM [inhibitor, partial curve, poor fit]"}, {"molecule": "O=C(CC(C(=O)N1CCc2ccccc21)n1ccnc1)N1CCc2ccccc2C1", "note": "(centres undefined)", "Potency": "inconclusive: 50.1 µM [inhibitor, partial curve, poor fit]"}, {"molecule": "CCN(CC)c1ccc(/C=N/NC(=O)c2ccc3c(c2)OCCO3)cc1", "Potency": "inactive"}, {"molecule": "OC(CN1CCOCC1)Cn1c2c(c3ccccc31)CCCC2", "note": "(centres undefined)", "Potency": "inconclusive: 39.8 µM [inhibitor, partial curve]"}, {"molecule": "Cc1ccc(NC(=O)c2sc3nc(-c4cccs4)ccc3c2N)cc1F", "Potency": "inconclusive: 0.355 µM [inhibitor, full curve]"}, {"molecule": "CCOC(=O)C1(C)NC(c2ccco2)C2C(=O)N(C)C(=O)C21", "note": "(centres undefined)", "Potency": "inconclusive: 7.08 µM [inhibitor, single point]"}, {"molecule": "COc1ccc(S(=O)(=O)N2CCC(C(=O)Nc3ccccc3N3CCCC3)CC2)cc1OC", "Potency": "inconclusive: 56.2 µM [inhibitor, partial curve, poor fit]"}, {"molecule": "C=CCN1C(=O)/C(=C/c2ccc(O)cc2)S/C1=N/c1nccs1", "Potency": "inconclusive: 39.8 µM [inhibitor, partial curve, poor fit]"}, {"molecule": "c1cncc(-c2nc(NCc3cccs3)c3ccccc3n2)c1", "Potency": "inconclusive: 44.7 µM [inhibitor, partial curve]"}, {"molecule": "CCN(CC)CCSc1c(C(C)C)cnc2c1c(=O)n(C)c(=O)n2C", "Potency": "inactive"}, {"molecule": "CC(OC(=O)Cn1[nH]c(=O)c2ccccc2c1=O)C(=O)Nc1ccccc1[N+](=O)[O-]", "note": "(centres undefined)", "Potency": "inconclusive: 5.62 µM [inhibitor, full curve]"}]}]}
